Results deposited as PubChem BioAssay AID1259254 (NCATS, 2017)
Shown is one part, drawn at random, of about 59,000 deposited reagents. About 1,550 of them (2.6%) were called active. 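G2 share is only a proxy for re-replication; each gene was hit by three separate siRNAs, and active genes were retested.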 Reagents against one gene are numbered here. Not all columns of the deposit are shown. No sequences are given here. Not given: the amount of reagent.

Purpose: 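Gene knock-downs that lead to re-replication, shown by excess G2 DNA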 (primary screen)
System: human HCT116 colorectal cancer cells
Reagents: single siRNA against human genes
Time to read-out: 3 days
Measured: 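Imaged Hoechst DNA stain sorts each cell into a cycle phase by DNA amount; per plate, G2 fraction set to 0% for non-targeting and 100% for GMNN siRNA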
Scale: G2 robust z-score and G2 cells, % of GMNN control: higher = more G2 cells, more excess DNA replication
Call rule: 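Active siRNAs have a G2 robust z of 5 or more median absolute deviations over the median, which in these data means about 38% or higher of GMNN control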

For DPM3 (dolichyl-phosphate mannosyltransferase subunit 3, regulatory) #1, the values are G2 robust z-score -0.545; G2 cells, % of GMNN control -0.868; inactive. With knock-down of DPM3 (dolichyl-phosphate mannosyltransferase subunit 3, regulatory) #2, the record shows G2 robust z-score 4.45; G2 cells, % of GMNN control 34.3; inactive. DPM3 (dolichyl-phosphate mannosyltransferase subunit 3, regulatory) #3 showed G2 robust z-score -0.43; G2 cells, % of GMNN control -0.059; inactive. Knock-down of DIO3 (iodothyronine deiodinase 3) #1 resulted in: G2 robust z-score -0.661; G2 cells, % of GMNN control -1.68; inactive. For DIO3 (iodothyronine deiodinase 3) #2, the entry reads G2 robust z-score 0.651; G2 cells, % of GMNN control 7.55; inactive. Depletion of DIO3 (iodothyronine deiodinase 3) #3 gave: G2 robust z-score -0.781; G2 cells, % of GMNN control -2.53; inactive.

Depletion of CIMAP2 (ciliary microtubule associated protein 2) #1 resulted in: G2 robust z-score 0.807; G2 cells, % of GMNN control 8.65; inactive. CIMAP2 (ciliary microtubule associated protein 2) #2 gave G2 robust z-score 3.69; G2 cells, % of GMNN control 28.9; inactive. Knock-down of CIMAP2 (ciliary microtubule associated protein 2) #3 gave: G2 robust z-score 2.5; G2 cells, % of GMNN control 20.5; inactive. After knock-down of CSKMT (citrate synthase lysine methyltransferase) #1, the screen gave G2 robust z-score -0.631; G2 cells, % of GMNN control -1.47; inactive. With knock-down of CSKMT (citrate synthase lysine methyltransferase) #2, the record shows G2 robust z-score -0.497; G2 cells, % of GMNN control -0.532; inactive. After knock-down of CSKMT (citrate synthase lysine methyltransferase) #3 the results were G2 robust z-score -0.352; G2 cells, % of GMNN control 0.494; inactive.

Not a retest: an excerpt of the list.
CIMAP2 (ciliary microtubule associated protein 2) #2 → G2 robust z-score: 3.69; G2 cells, % of GMNN control: 28.9; Call: inactive
CIMAP2 (ciliary microtubule associated protein 2) #3 → G2 robust z-score: 2.5; G2 cells, % of GMNN control: 20.5; Call: inactive
